For at least one entry, the source does not settle the construct or the ends of the probe. Where cells or extracts were used, other partners may take part. For some assays here: Negatives hold for the conditions tested.

Sequences of proteins named here, by UniProt entry; tags and fusion partners are left off. A change or cut given only in a name is not applied to a line headed by its entry.
UniProt P15976: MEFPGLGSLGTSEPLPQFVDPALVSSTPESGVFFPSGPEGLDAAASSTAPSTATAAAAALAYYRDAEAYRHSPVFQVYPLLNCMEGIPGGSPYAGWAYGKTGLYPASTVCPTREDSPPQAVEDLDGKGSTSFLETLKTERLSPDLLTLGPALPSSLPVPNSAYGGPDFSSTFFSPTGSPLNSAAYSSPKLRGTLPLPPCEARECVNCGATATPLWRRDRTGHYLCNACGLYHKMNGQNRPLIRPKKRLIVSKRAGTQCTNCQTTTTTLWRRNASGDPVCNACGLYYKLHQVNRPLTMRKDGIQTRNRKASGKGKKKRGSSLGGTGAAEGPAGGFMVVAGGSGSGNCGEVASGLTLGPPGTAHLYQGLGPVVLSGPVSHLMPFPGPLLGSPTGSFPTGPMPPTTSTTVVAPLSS

Series [1] concerns the target GATA-1 (UniProt P15976). Description: competition with a labelled probe. As to conditions: K562 nuclear extract, unlabeled mutant at 50-200-fold molar excess failed to compete with labeled wt probe; LightShift chemiluminescent EMSA kit, 4 ug nuclear extract, 50 ug/ml poly(dI-dC), 6% DNA retardation gel; pH and temperature not stated; protein in an extract; label: none (unlabeled competitor). Background: In EMSA bound probe runs differently from free probe, usually more slowly.

The target of series [2] is GATA-1 (UniProt P15976). Description: EMSA. The note with it: K562 nuclear extract 4 ug, complex blocked by anti-GATA-1 antibody and by 50-200-fold unlabeled wt probe; LightShift chemiluminescent EMSA kit, 4 ug nuclear extract, 50 ug/ml poly(dI-dC), 6% DNA retardation gel; pH and temperature not stated; protein in an extract.

Turning to “GCCAGAGGCCTGCTCACTGG (double strand) [-850 GATA-1 mt (ALCAM promoter)]”, the binding result in the series with GATA-1 [1] is reported as “no binding”.
With “GCCAGAGGCCTTATCACTGG (double strand) [-850 GATA-1 wt (ALCAM promoter)]”, the binding result with GATA-1 [2] is recorded as “binds”.

Source of the values: PMC3003670.
